Results are given in words; binding and its absence hold for the method and conditions named. In cells and extracts the contact can be indirect. Here binding means that the protein was enriched with, or labelled near, the bait; the list need not be complete.
Key:
[1] = molecular target: MltG, N-terminal His-tagged construct (P. aeruginosa) (UniProt Q9HZN7); test: affinity purification with mass spectrometry; only the target purified
[2] = molecular target: RlpA-Δ32 (rare lipoprotein A), N-terminally His-tagged (P. aeruginosa PAO1) (UniProt Q9X6V6); test: as above
[3] = molecular target: MltG, N-terminal His-tagged construct (P. aeruginosa) (UniProt Q9HZN7); test: affinity purification with mass spectrometry; N-terminally His-tagged LT on Ni-NTA resin incubated with the soluble or the 0.5% NP-40-solubilised membrane proteome of P. aeruginosa PAO1, 4 °C overnight; eluted with 500 mM imidazole; no cross-linker; only the target purified
[4] = molecular target: MltB, N-terminal His-tagged construct (P. aeruginosa) (UniProt Q9HVX3); test: as above
[5] = molecular target: RlpA-Δ32 (rare lipoprotein A), N-terminally His-tagged (P. aeruginosa PAO1) (UniProt Q9X6V6); test: as above
[6] = molecular target: MltA, N-terminal His-tagged construct (P. aeruginosa) (UniProt Q9I4B6); test: as above
[7] = molecular target: MltF, N-terminal His-tagged construct (P. aeruginosa) (UniProt Q9HXN1); test: as above
[8] = molecular target: MltF2, N-terminal His-tagged construct (P. aeruginosa) (UniProt Q9HZY1); test: as above
[9] = molecular target: MltD, N-terminal His-tagged construct (P. aeruginosa) (UniProt Q9I2T2); test: as above
[10] = molecular target: Slt, N-terminal His-tagged construct (P. aeruginosa) (UniProt Q9HZI6); test: as above
[11] = molecular target: MltB, N-terminal His-tagged construct (P. aeruginosa) (UniProt Q9HVX3); test: affinity purification with mass spectrometry; only the target purified
[12] = molecular target: MltF2, N-terminal His-tagged construct (P. aeruginosa) (UniProt Q9HZY1); test: as above
[13] = molecular target: MltD, N-terminal His-tagged construct (P. aeruginosa) (UniProt Q9I2T2); test: as above
[14] = molecular target: MltF, N-terminal His-tagged construct (P. aeruginosa) (UniProt Q9HXN1); test: as above
[15] = molecular target: Slt, N-terminal His-tagged construct (P. aeruginosa) (UniProt Q9HZI6); test: as above

Sequences of proteins named here, by UniProt entry; tags and fusion partners are left off. Residues count along the entry.
UniProt Q9HXN1, residues 33-490: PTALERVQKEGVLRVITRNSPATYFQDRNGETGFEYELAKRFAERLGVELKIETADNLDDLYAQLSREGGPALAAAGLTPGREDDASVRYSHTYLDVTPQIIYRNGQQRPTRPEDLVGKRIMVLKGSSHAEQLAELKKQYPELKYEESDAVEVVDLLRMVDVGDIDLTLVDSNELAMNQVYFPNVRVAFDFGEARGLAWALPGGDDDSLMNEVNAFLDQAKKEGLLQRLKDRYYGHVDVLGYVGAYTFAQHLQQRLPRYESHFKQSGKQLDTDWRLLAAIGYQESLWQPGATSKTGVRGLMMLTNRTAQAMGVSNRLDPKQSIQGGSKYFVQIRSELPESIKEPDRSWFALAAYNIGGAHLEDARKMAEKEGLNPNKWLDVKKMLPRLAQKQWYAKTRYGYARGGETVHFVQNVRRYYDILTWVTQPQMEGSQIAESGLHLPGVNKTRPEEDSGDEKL

Measured: binding

B1: PilA (protein, UniProt P04739 7-149)
chain: FTLIELMIVVAIIGILAAIAIPQYQNYVARSEGASALATINPLKTTVEESLSRGIAGSKIKIGTTASTATETYVGVEPDANKLGVIAVAIEDSGAGDITFTFQTGTSSPKNATKVITLNRTADGVWACKSTQDPMFTPKGCDN
binds: [1] | [2]

B2: PilO (protein, UniProt G3XD51 1-207)
chain: MSLASSLESLRKIDINDLDLNNIGSWPAAVKVIVCVLLTAAVLALGYNFHLSDMQAQLEQQAAEEETLKQQFSTKAFQAANLEAYKAQMKEMEESFGALLRQLPSDTEVPGLLEDITRTGLGSGLEFEEIKLLPEVAQQFYIELPIQISVVGGYHDLATFVSGVSSLPRIVTLHDFEIKPVAPGSTSKLRMSILAKTYRYNDKGLKK
binds: [2]

B3: PBP7 (protein, UniProt P72161 24-310)
chain: SPPPKAGLPLQQELASGSALVTDQNTGKVLYSRNPDLVVPIASITKLMTAMVVLDSKLPLDEVLPIAISETSEMRGVFSRVRVGSQISRRDMLLLALMSSENRAAASLAQNYPGGKNAFVKAMNAKAHALGMKNTRYVEPTGLSLHNVSTARDLTRLLVASRQYPLLSQWSTTPEKTVAFRHPNYTLGFRNTNHLINNKTWNIQLTKTGFTNEAGHCLVMRTTINRSPVNLVVLDAFGKYTHFADATRLRRWLETGQVTAIPAAAKAYRLQRDRERGLGQPVAQAVR
binds: [3] | [4] | [5] | [6] | [7] | [8] | [9] | [10]

B4: PA0788 (protein, UniProt Q9I5F0 1-1041)
chain: MNCAATGGASMGASERSTNDPSELQPCSLPASASPRKSRLRQRLMLIGFALPILAAVGIVVLHEAHTSRLQARELARYAATLDYEVRQGPSEAILFPADGPFDRRLGYQLLPSFMQRLYDRDYAITRQAHFSPALMRYAEHRLFPPYAEKAQAGLDIADCRGVPIYDFRYPQRRYANFASLPPLVVQSLLFIENRDLLDHERPYLNPAVDWGRFTQAALSQVGKMLGFSAHSSGGSTLATQIEKYRHSAEGRTGSIGDKLRQMLSASVRSYREGPANFAARQDIVLTYLNSVPLSAAPGYGEVTGLADGLWVWYGADYRQVGEALDGKAGLAAQGLALRQVLALMIAHRRPSFYLAPRGRDELDRMTDSHLRVLTQAGVIEAPLRDAALAQKLAFRDPRSQPTVQPLPTNKGVTLARTRLAGMLGVPLYDLDRLDLRANTTLQHELQESVTAYLQKLADPDYAAQLGLIGERLLTPTSTRSVRYSFTLFERTPSGNQVRVQTDNTDQPFDINEGSKLELGSTAKLRVLASYLETVAQIHRDYGGMSVAELRKVEVEPLDFILRWGIDYLVASRDRDLSAMLQAAMERRYSASPYESFFTGGGLHTFNNFRKEDNGRRPMLLEALRESINLPFVRLLRDLIRHDIYQNAGSKVQLLADDKDPRRADYLDRFVDKESQVYLRRFWVKYRDKDANQRLETFLDGLRPWPVRLAAIHRYLQPQADLASFSAFLRERLPRGSLTDKRAAELYERYGPGKFNLNDQGYVARVHPLELWLLGYLQKQPQATFGEAVAASGAERKEVYGWLFKSRHKNARDKRIRILLEVEAFLDLHQQWKKLGYPFDHLVPSYATALGSSGDRPAALAELMGIIVNDGVRMPTLRLEHLDFALGTPYETRFAPEATLGQRVMTSEVATTLRNALSQVVDAGTARRLQGTFSRPDGAPLVMGGKTGTGDNRLQTFSAGGHVRSSKALNRTATFVFYIGPRHFGTLTAYVDGSESSQFKFTSALPVQVLKGMAPLLRDYLDPRTATRCQVPLSPQQIGRL
binds: [2]

B5: PmrB (protein, UniProt Q9HV31 1-477)
chain: MSRAAVPSVRRRLLVNLLVGFVLCWLSVAALTYHLSLKQVNRLFDDDMVDFGEAALRLLDLATEDQAGEDGSITEIIERSREAIQGLPLLRRESALGYALWRDGQPLLSSLNLPPEITAQGPGFSTVEAQGTHWRVLQLNIDGFQIWISENLIYRQHTMNLLLFYSLFPLLLALPLLGGLVWFGVARGLAPLREVQAEVQQRSARHLQPIAVEAVPLEIRGLIDELNLLLERLRTALEAERRLTSDAAHEIRTPLASLRTHAQVALRSEDPKAHARGLLQVSRSVERISTLMEQILLLARLDGDALLEQFHPVNLATLAEDVLSELARQAIDKDIELSLHQETVYVMGIDLWLKAMVGNLVGNALRYTPAGGQVEIRVENRAQHAVLRVRDNGPGVALEEQQAIFTRFYRSPATSSGEGSGLGLPIVKRIVELHFGSIGLGKGLEGKGLEVQVFLPKTQPDATRPPARGPDSGRSHI
binds: [2]

B6: RlpA (rare lipoprotein A) (protein, UniProt Q9X6V6 27-342)
chain: CSSKAPQQPARQAGISGPGDYSRPHRDGAPWWDVDVSRIPDAVPMPHNGSVKANPYTVLGKTYYPMNDARAYRMVGTASWYGTKFHGQATANGETYDLYGMTAAHKTLPLPSYVRVTNLDNGKSVIVRVNDRGPFYSDRVIDLSFAAAKKLGYAETGTARVKVEGIDPVQWWAQRGRPAPMVLAQPKQAVAQAAPAAAQTQAVAMAQPIETYTPPPAQHAAAVLPVQIDSKKNASLPADGLYLQVGAFANPDAAELLKAKLSGVTAAPVFISSVVRNQQILHRVRLGPIGSADEVSRTQDSIRVANLGQPTLVRPD
binds: [3] | [4] | [6] | [7] | [8] | [9] | [10]

B7: PA2530 (protein, UniProt Q9I0V3 1-441)
chain: MHQRQHFEALAEDLRRHLAEGEDFTLWYSAEDSEFIRFNRARVRQAGRVRQASALLRLIRDERQASLDLTLSGAPEEDRQRLAEGLRQLRQSLAWIPADPYLLLDTSAWQRENQDLGAAPDSGALLASLERRARDLDLVGIYAAGPLFRGFANSWGAFGWHAGSSFNFDWSLFHGNGQAVKADYAGQRWDDEAFARRFEQAREQLGHLGKPLRQLRPGDYRAYLAPAALEEVMQMLCWGGFSARALATGESPLQRLQNGDALLSPLLNLAERPATSPSPAFSAEGSPRAEVELVGNGRLSGRLVSSRSAREYGLVANGAGANEAPTALDMAGGSLEQARILEALDTGLYIGNLWYLNYSDMPAARLTGMTRFATFWVENGQIRAPVSTMRFDDSLYSFLGAHLEDLSHERELRLSSNTYGERQTDSMHLPGALTGRFTLTL
binds: [11] | [12] | [13]

B8: PA5043 (protein, UniProt G3XD30 1-198)
chain: MARINLLPWREELREQRKQQFLVILGGVLVASAALVFLGDQYFTAAIENQNARNDFLRKEIVVLDARIKEISELKSRRQQLLERMKIIQDLQGNRPIIGRVFDQLVRTLPDGVYFTDLKMTGKNIAIAGAAESNNRVSNLMRNMDASEWLTAPTLNEVKAVTQGAVDQANVFQLTVQQTQPGEEDAKAKHGVAQGAKK
binds: [14] | [15]
